# In patent US9828412B2 (SOUTHERN MEDICAL UNIVERSITY, priority 2014, dated 2017):
# Test: peptide made by a vendor (Fmoc solid-phase peptide synthesis)
# Details: whole synthesis, reversed-phase HPLC
substance,measurement,value
N′-Arg-Lys-Lys-Asn-Lys-Pro-Pro-Pro-Pro-Lys-Lys-NH2-C′,final HPLC purity,98.9%
